PubChem BioAssay AID1259425 | University of Nebraska Medical Center – 2018

Test: 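Seek colon cancer weak points whose silencing resembles KSR1 loss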 (primary screen)
Cells: HCT116 human colon cancer cells
Reagent: siRNA pool against human genes, 50 nM siRNA
Measured: 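mRNA of six signature genes measured together by branched-DNA assay after 50 nM siRNA pool, blank removed, divided by geometric mean of two housekeeping genes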
Reading the numbers: BNIP3L mRNA: higher = more BNIP3L transcript after knockdown; NDRG1 mRNA: higher = more NDRG1 transcript after knockdown
This is one part, drawn at random, of about 14,000 reagents. Further read-outs or replicates are left out here. The record does not give: the time to read-out.

gene	BNIP3L mRNA, set 1	NDRG1 mRNA, set 1
DERL2	0.272	0.78
NRGN	0.116	0.272
WNT16	0.0451	0.105
AKR1C8	0.0624	0.151
SRP9	0.0669	0.132
GATA5	0.0569	0.0501
RAD17	0.0613	0.097
SPEF2	0.0989	0.155
TAB1	0.0817	0.0916
WNT1	0.0667	0.135
CDK5RAP2	0.11	0.443
SLC41A2	0.168	0.18
GJB3	0.0459	0.168
RIOX2	0.0857	0.0959
PJA2	0.144	0.611
LCP1	0.0927	0.136
KCND1	0.0611	0.177
MIS18A	0.2	0.581
LONP1	0.168	0.267
TMEM101	0.254	0.276
CR2	0.0631	0.0885
DLEU2	0.258	0.272
MYCT1	0.119	0.286
HRK	0.127	0.129

The list goes on, starting with the last 3 of the part before.
gene	BNIP3L mRNA, set 1	NDRG1 mRNA, set 1
DLEU2	0.258	0.272
MYCT1	0.119	0.286
HRK	0.127	0.129
OBI1	0.174	0.169
WDR82	0.24	0.391
ZBTB17	0.216	0.238
SMURF2	0.105	0.213
PIGF	0.153	0.874
KLK14	0.106	0.0617
TNFRSF19	0.113	0.0885
CAPN7	0.0755	0.114
MAP3K4	0.135	0.175
TRRAP	0.16	0.146
ZFAND5	0.15	0.179
CENPT	0.0797	0.17
KCNE1	0.0725	0.252
MBD2	0.153	0.118
UBTD2	0.0578	0.328
INPP5J	0.168	0.176
TOMM70	0.155	0.152
ZKSCAN5	0.058	0.165
PPRC1	0.102	0.569
MAZ	0.131	0.161
CLDN2	0.179	0.275
UBE2T	0.0678	0.786
POLR3K	0.0729	0.169
GRIPAP1	0.139	0.225
TPSD1	0.142	0.302
NPHS1	0.0777	0.144
